Reference: article PMC9095979, “Optimization of eIF4E-Binding Peptide Pep8 to Disrupt the RBM38-eIF4E Complex for Induction of p53 and Tumor Suppression” (Frontiers in Oncology, 2022)
Results are given in words; binding and its absence hold for the method and conditions named. For some assays here: Binding seen in cells or lysates may run through a third protein. Some entries that bind do so weakly or less than the wild type. For some assays here: Sequences can lack the tags named with a protein.

Sequences of proteins named here, by UniProt entry; tags and fusion partners are left off.
UniProt P06730: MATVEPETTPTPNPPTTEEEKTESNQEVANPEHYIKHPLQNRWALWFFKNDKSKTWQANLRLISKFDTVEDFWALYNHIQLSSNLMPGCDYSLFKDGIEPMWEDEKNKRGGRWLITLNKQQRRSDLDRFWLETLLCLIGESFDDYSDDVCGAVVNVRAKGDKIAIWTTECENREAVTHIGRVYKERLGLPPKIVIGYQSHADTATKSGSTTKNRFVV

Experiments:
Pep8 (human) = target: T1, Pep8 (human); experiment: pull-down; peptides conjugated to TentaGel resins, eIF4E detected by immunoblot; conditions not given
T1 sequence (peptide, conjugated to TentaGel resin): YPYAASPA

GST-RBM38 = target: T2, GST-RBM38 (UniProt Q9H0Z9); experiment: pull-down; competitive: GST-RBM38 on GST beads, 250 µg purified eIF4E and 10 µM peptide in lysis buffer (50 mM Tris pH 7.5, 150 mM NaCl, 0.1% Triton X-100), rocked overnight, washed 3x, western blot; both purified
T2 sequence: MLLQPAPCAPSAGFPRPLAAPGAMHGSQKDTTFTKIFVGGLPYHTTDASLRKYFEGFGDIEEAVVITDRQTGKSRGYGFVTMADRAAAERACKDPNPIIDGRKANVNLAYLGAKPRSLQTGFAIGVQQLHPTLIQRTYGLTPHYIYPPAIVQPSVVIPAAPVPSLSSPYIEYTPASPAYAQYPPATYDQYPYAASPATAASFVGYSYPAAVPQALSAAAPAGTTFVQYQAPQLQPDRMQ

Substance | binding (Pep8 (human)) | binding (GST-RBM38)
eIF4E (in the pull-down with TentaGel-bound peptides) (from UniProt P06730 1-217) | binds | 
eIF4E (purified, from pTXB1-eIF4E) (from UniProt P06730 1-217) |  | binds
